Measured values: PubChem BioAssay AID1347426 (Functional Genomics Laboratory (NCATS/FGL), 2020)
Hit rate of the full screen: of about 31,000 sequences, about 1,400 (4.5%) were called active.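 How the source made its calls: active means median seed-adjusted z-score above 1 or below -1; inactive means the rest.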 This is one part of the list.

Assay: Novel Modifiers of Survival Motor Neuron (SMN) Protein: Gene Identification via Genome-wide siRNA Screen
Conditions: HEK293T SMN2-luciferase reporter, siRNA knockdown, 72 h; actives lie on both sides
Procedure, shortened: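 Each of three siRNAs per gene is reverse-transfected (1 pmol) into reporter HEK293T cells whose luciferase output tracks SMN protein level. After 72 h culture, ONE-Glo luminescence is control-normalized, log10-transformed and MAD-standardized; Common Seed Analysis deprioritizes seed-driven hits.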

Row | Sequence | median seed-adjusted z-score
1 | GAGCGACUAAGAUAGAUCATT against POLQ | inactive: 0.203
2 | GGUUGGGAGCUGUAUCACATT against DMGDH | inactive: 0.0323
3 | GGUGUUACAGGCGAAAAUATT against POGZ | inactive: -0.376
4 | GGGUUUUGCUGGACACAGUTT against GNB2 | inactive: 0.561
5 | CAUCUCGACUUAUUGGAAATT against WEE1 | active: -4.05
6 | GCUUUAUCCUCAACGUGCUTT against GGT5 | inactive: 0.307
7 | GGGCGAGACUGUAAAGCGATT against PCBP4 | inactive: -0.269
8 | GCAUAAUGAAUACCCUAGATT against SCN9A | inactive: -0.581
9 | GGUUCGUGAAGUUCGUAAATT against UTP3 | active: -1.08
10 | CUGAGAAAAUUAGUCCGAATT against SLC39A6 | inactive: -0.262
11 | UGCCUACACUACUUAAGUATT against TXNDC17 | inactive: 0.245
12 | GUAUAGUGAUUGUAGCUGUTT against NDUFC1 | inactive: 0
13 | GGCUGCGGAUGAUUUCAGATT against KRT31 | inactive: 0.604
14 | GUGACCUUGUCAUUCCGUATT against RGS5 | inactive: 0
15 | CCACGAGUGGAUGAAAUCATT against NAT9 | inactive: -0.657
16 | AGAACAACCUGGACUAUAUTT against PPP5C | inactive: 0.473
17 | CUAUGGACGUCUCCAAUCATT against GSTM4 | inactive: -0.204
18 | GGCAGUUGAAGAUAUAGAATT against PRDM5 | inactive: -0.463
19 | GAGUGGGAAUGGUCAGGCUTT against ADORA2B | inactive: -0.471
20 | CAAACUUCCCGAUAGAGAATT against CTDP1 | active: -2.29
21 | CAAGAACACUCCUCGAGUATT against ZNF823 | inactive: 0.143
22 | CCGUUUACCUGCUCUAUAATT against OTUB2 | inactive: 0.513

Row | Sequence | median seed-adjusted z-score
23 | GGAUUGAAAACUUCAUCAATT against GLUD2 | inactive: -0.0225
24 | CAAGGGCACAGGCACAAAATT against SBK1 | inactive: 0.0587
25 | GAGUAUCUCUGAAACCUCUTT against IL1A | active: 1.12
26 | GCCGUGUCUAUUCCAUCUATT against CAV1 | inactive: 0
27 | GGAGAGCAGAGUACUCAAATT against MORF4L1 | inactive: 0.225
28 | GCAUGGGAACAACUACAAATT against TTPA | inactive: -0.208
29 | CCAUCUAUUCUGCAACCAATT against HSD17B12 | inactive: 0.0719
30 | AAGAGAGACUUAAGAUGAATT against SPRR1B | inactive: -0.721
31 | GGUGCUGAAUGUGGAGUAATT against DNAJC3 | inactive: 0.502
32 | GAUAAAAGGUUACAAACGATT against HIF1AN | inactive: -0.0315
33 | UGACCUACGAUGAAUUUAATT against APOBEC3A | inactive: 0.467
34 | GGCUGUCAGUAAACAACAATT against CCNF | inactive: -0.435
35 | GAAAAUGAGAGUGAACCAATT against WBP5 | inactive: 0.452
36 | CAGUUAUACCCAUAAGAAATT against ZNF180 | inactive: 0
37 | CCUAUGGACUGAACAGGGATT against ZDHHC3 | inactive: 0.229
38 | GGAUGGUCCUGGAAAGUAUTT against USP5 | inactive: 0.596
39 | GCUCAGAUGUUAUUCGGGATT against SKIV2L | inactive: 0.209
40 | GCCUAAUGAUCCGACUUUATT against ABCA12 | inactive: 0.0759
41 | GGAUCACACCUACGACCUUTT against GPR112 | inactive: 0
42 | CGAAGAGUAUUUGACCAAATT against BAG3 | inactive: -0.443
43 | CCUACAAGUUUAUUCGGGATT against GPR173 | inactive: -0.147
44 | GGCCUGAUUUCAAACGAAATT against ABHD5 | inactive: 0.131

Row | Sequence | median seed-adjusted z-score
45 | GCUAUGGAGUGAUUGAACATT against HERC3 | inactive: -0.0884
46 | GCUUCCAGGUGUACUGUGATT against FIBCD1 | inactive: -0.0249
47 | GGAUUGACCAGUUAACCAATT against SLC40A1 | inactive: -0.177
48 | CAACAGCGAUGAUUACAGUTT against SRY | inactive: -0.949
49 | GGUUGCUACGGGAACAAUATT against ARSD | inactive: -0.447
50 | AGGUACUACUUAUCGAGAATT against GPX1 | inactive: -0.0529
51 | GAAGAACUGUUCAACUGUATT against UPP2 | inactive: 0.586
52 | GCACACUUGAGUUUGUGUATT against HES6 | inactive: 0.71
53 | UCCUUAUGGUUUUACACGATT against AMY2B | inactive: -0.564
54 | CAAUGAUAGAUGAUCUAAATT against DZIP1 | inactive: -0.138
55 | GGAACAACUUAAUCAGUAUTT against TNPO1 | inactive: 0.688
56 | GCUUUGUGAACGACAAUUATT against RABGGTB | inactive: -0.856
57 | UGGUGACCAUGGACGUGGATT against ANAPC2 | inactive: -0.116
58 | GCCCAGGGCAUUACACUGATT against TENC1 | inactive: 0.892
59 | GAAGGUGGAUUGCAACAAATT against GPX6 | inactive: 0.35
60 | AGAUCUCGGCUUUGGAUAUTT against ACPT | inactive: -0.114
61 | GCACGUUAAGAAGCCCGAATT against TRMU | inactive: 0.0312
62 | GCAUAGUGCUUGUACUAUUTT against SLC9A8 | inactive: 0.367
63 | UGCUCUACAUCAACCCUGATT against FSHR | inactive: -0.462
64 | GGCACCCAUUGAUAAGAAATT against MYL9 | inactive: 0.571
65 | UGCUUAUUCCUCACACUUATT against DDO | inactive: -0.202
66 | CUGUUAUUCUUCAUACCUATT against TAAR8 | inactive: 0.0792

Row | Sequence | median seed-adjusted z-score
67 | CCAUAUAGCAGAUUAGAUUTT against LIPI | inactive: 0.65
68 | GGAUAAUAAGGGAACGGGATT against ALDH9A1 | inactive: -0.297
69 | CAAUGAGACUUACUAUGGUTT against SLC2A5 | inactive: -0.429
70 | GGAUGCAAUUGAAGCUCAUTT against ATG5 | inactive: -0.0597
71 | GGAUCUCAAUCUAGCAGUATT against JARID1D | inactive: 0.293
72 | GGCUAACUACUGAGCUGAATT against C1RL | inactive: -0.148
73 | GGAGCUGGGUUAUCCAAGATT against PPP1R1B | inactive: -0.354
74 | UGGACUUGGUGUGCAUUAATT against GFOD1 | inactive: 0.923
75 | GGGCUUCGGUUACUGCUUUTT against LTBP4 | inactive: 0.19
76 | CGACCAAAUGUGAAAUGGATT against VPS4B | inactive: -0.0992
77 | GGUUCGACAAGUUCAAAUATT against EEF1D | inactive: 0.421
78 | CAACAUUUCGAUGCUCCUATT against GPR135 | inactive: 0.546
79 | ACAUCUCAGAGAUCGAAGATT against ST8SIA2 | inactive: 0.516
80 | GGAAUAACACGAUCGUGAATT against GAA | inactive: 0.756
81 | GAAAUCGACUCUCACCAAATT against IL18RAP | inactive: -0.681
82 | GAAGUAAAAUCUGUCGAAATT against EEF1A1 | inactive: -0.755
83 | GCAACCUGCUCGAUCUGAATT against AP1B1 | inactive: -0.161
84 | CGGUCUAUGGUGGUCCAAATT against RBM16 | inactive: 0.279
85 | GAAGAACUCGAUCAGCUAATT against MYH4 | active: -1.8
86 | CCUGUACCCUUGCAAGAAATT against PTAFR | inactive: 0.302
87 | CCAGUGUGCUCGUUACGUUTT against SLC25A33 | inactive: -0.0252
88 | GCUACAAGGAGAUCCGGAATT against CHGA | inactive: -0.0235

Row | Sequence | median seed-adjusted z-score
89 | CAAAGAAGCUUUUUCACUATT against CALM2 | inactive: 0.127
90 | GGCUUUUAGAGUACGACAATT against ZFP30 | inactive: 0.211
91 | GAGUCCCUGUUCGUACUUATT against CDK2 | inactive: -0.347
92 | GGACUUAGUAUAAUGUGAATT against NDUFA2 | inactive: -0.694
93 | GAGUAUGGAUGUUUCCGUATT against HOXC13 | inactive: -0.318
94 | GGAACUCAGUGGUCCUCAATT against ALDH3A1 | inactive: -0.486
95 | ACCUAUUGGAUGCUAAAUATT against SVOPL | inactive: 0.439
96 | CAGAUGAUAUGGUUAGUGATT against UNC13C | inactive: -0.136
97 | CACUCACACCAACCUGUGATT against GNG13 | inactive: -0.516
98 | CCACUGUGAUUGCUGUCAATT against DGAT2L4 | inactive: 0.145
99 | GGUAUGAGGUUGACUCAUUTT against IFNAR1 | inactive: 0.0327
100 | GACGUGAGCCGAUCAUUAATT against PROCA1 | inactive: -0.502
101 | CUACUUGAGUAGACGAUGATT against THAP8 | inactive: -0.872
102 | GGCGGAGUAUGGAAAGUUATT against UBE2H | inactive: 0
103 | GGCGAAAUCGUGCUGAUUATT against HSD17B11 | inactive: 0.379
104 | CAGCAGCCGUGUUCACAAATT against ALDH1A3 | inactive: 0.228
105 | GUCACUAAACCAUAUGUUUTT against GLULD1 | inactive: -0.332
106 | CCUCAUCUGUUCGACCGAATT against TLK1 | inactive: -0.0133
107 | GCAACCCUCUGUUUCAGGATT against MTG1 | inactive: -0.19

A section from the list above, as a working copy:
Row | Sequence | median seed-adjusted z-score
89 | CAAAGAAGCUUUUUCACUATT against CALM2 | inactive: 0.127
90 | GGCUUUUAGAGUACGACAATT against ZFP30 | inactive: 0.211
91 | GAGUCCCUGUUCGUACUUATT against CDK2 | inactive: -0.347
92 | GGACUUAGUAUAAUGUGAATT against NDUFA2 | inactive: -0.694

Reformatted field by field: part of the list above
GGAUGGUCCUGGAAAGUAUTT against USP5
  median seed-adjusted z-score: inactive: 0.596
AGAUCUCGGCUUUGGAUAUTT against ACPT
  median seed-adjusted z-score: inactive: -0.114
